In article PMC6797763:
The exact form of at least one protein or probe is not confirmed. For some assays here: A weaker result is weaker than the reference pair of the same experiment.

How the values were obtained:
[1] = tested on: AP2-I (RAP2-7 AP2 domain, microexon included) (Gossypium arboreum); test: EMSA; details: 0.5 ug protein, 5 pmol probe in 20 uL, 5 mM Mg2+; 20 uL: 2 uL 10x buffer (100 mM Tris-HCl, 0.5 M KCl, 10 mM DTT, pH 7.5), 1 uL 50% glycerol, 1 uL 1% NP40, 1 uL 1 M KCl, 4 uL 25 mM MgCl2; recombinant protein; protein details: C-terminal 6xHis; label: 5'-FAM
[2] = tested on: AP2-S (RAP2-7 AP2 domain, microexon skipped) (Gossypium arboreum); test: EMSA; details: 0.5 ug protein, 5 pmol probe in 20 uL, 5 mM Mg2+, almost failed to bind; 20 uL: 2 uL 10x buffer (100 mM Tris-HCl, 0.5 M KCl, 10 mM DTT, pH 7.5), 1 uL 50% glycerol, 1 uL 1% NP40, 1 uL 1 M KCl, 4 uL 25 mM MgCl2; recombinant protein; protein details: C-terminal 6xHis; label: 5'-FAM

CTAGACTAGGTGCAGAATTCACTTGATGTCGATACCAGTCTAGACGTAACTGGACGAG (double strand) [Hot probe (58 nt AP2 probe)]
binding result [1]: binds
binding result [2]: binds more weakly
